Laboratory results published in PMC3325482.
No constants are given. Whether binding was seen depends on the method and setting. Some entries that bind do so weakly or less than the wild type. One block for each binder: values may come before it.

What was measured:
[1] = biological target: T1, rat Cd200R ectodomain (rat) (UniProt Q9ES58); assay: peptide or protein array; microarray AVEXIS: serial dilutions of purified biotinylated baits on streptavidin-coated slides, probed with 196 U of unpurified pentameric prey, 1 h at 22 °C, washes in PBS/Tween, anti-Flag HRP and TSA Alexa 555 detection; only the target purified
T1 sequence (chain, biotin on the lysine of the Bio peptide (bait form, enzymatic by BirA)): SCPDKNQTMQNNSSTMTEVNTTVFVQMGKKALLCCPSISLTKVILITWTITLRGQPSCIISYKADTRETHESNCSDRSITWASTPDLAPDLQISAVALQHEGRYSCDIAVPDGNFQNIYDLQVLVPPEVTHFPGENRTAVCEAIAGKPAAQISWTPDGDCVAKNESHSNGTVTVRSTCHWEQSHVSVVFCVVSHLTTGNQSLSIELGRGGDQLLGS

[2] = biological target: T2, zebrafish JamB1 ectodomain (zebrafish); assay: peptide or protein array; microarray AVEXIS: all six zebrafish Jam baits (purified, biotinylated) immobilised as a dilution series on streptavidin-coated slides, probed with the six corresponding pentameric preys, 1 h at 22 °C, anti-Flag HRP and TSA Alexa 555 detection; only the target purified
T2 sequence (chain, biotin on the lysine of the Bio peptide (bait form, enzymatic by BirA)): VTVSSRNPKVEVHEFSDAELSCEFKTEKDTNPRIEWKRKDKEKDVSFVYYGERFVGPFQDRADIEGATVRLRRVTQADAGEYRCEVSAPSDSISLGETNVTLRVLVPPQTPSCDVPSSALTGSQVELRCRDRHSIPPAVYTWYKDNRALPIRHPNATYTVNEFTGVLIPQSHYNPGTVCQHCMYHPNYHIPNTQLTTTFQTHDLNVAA

[3] = biological target: T3, zebrafish JamC1 ectodomain (zebrafish) (UniProt A3KPA0); assay: as above
T3 sequence (chain, biotin on the lysine of the Bio peptide (bait form, enzymatic by BirA)): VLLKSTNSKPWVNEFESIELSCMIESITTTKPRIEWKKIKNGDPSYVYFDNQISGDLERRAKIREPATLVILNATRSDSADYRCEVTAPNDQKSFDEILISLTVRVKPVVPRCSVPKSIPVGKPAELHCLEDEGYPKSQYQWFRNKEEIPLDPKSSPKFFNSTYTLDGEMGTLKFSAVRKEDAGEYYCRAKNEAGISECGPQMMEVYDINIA

[4] = biological target: T4, rat Cd200 ectodomain (rat) (UniProt P04218); assay: peptide or protein array; microarray AVEXIS: serial dilutions of purified biotinylated baits on streptavidin-coated slides, probed with 196 U of unpurified pentameric prey, 1 h at 22 °C, washes in PBS/Tween, anti-Flag HRP and TSA Alexa 555 detection; only the target purified
T4 sequence (chain, biotin on the lysine of the Bio peptide (bait form, enzymatic by BirA)): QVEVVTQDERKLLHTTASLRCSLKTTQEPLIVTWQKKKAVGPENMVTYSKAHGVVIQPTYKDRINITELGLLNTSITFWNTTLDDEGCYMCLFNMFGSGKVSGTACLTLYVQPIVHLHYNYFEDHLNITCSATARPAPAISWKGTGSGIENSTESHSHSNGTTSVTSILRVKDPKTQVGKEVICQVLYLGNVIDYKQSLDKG

binding [1]: binds
B1: rat Cd200 ectodomain (domain or fragment, UniProt P04218 31-232)
chain: QVEVVTQDERKLLHTTASLRCSLKTTQEPLIVTWQKKKAVGPENMVTYSKAHGVVIQPTYKDRINITELGLLNTSITFWNTTLDDEGCYMCLFNMFGSGKVSGTACLTLYVQPIVHLHYNYFEDHLNITCSATARPAPAISWKGTGSGIENSTESHSHSNGTTSVTSILRVKDPKTQVGKEVICQVLYLGNVIDYKQSLDKG
modifications: biotin on the lysine of the Bio peptide (bait form, enzymatic by BirA)

binding [2]: binds
B2: zebrafish JamC1 ectodomain (domain or fragment, UniProt A3KPA0 24-235)
chain: VLLKSTNSKPWVNEFESIELSCMIESITTTKPRIEWKKIKNGDPSYVYFDNQISGDLERRAKIREPATLVILNATRSDSADYRCEVTAPNDQKSFDEILISLTVRVKPVVPRCSVPKSIPVGKPAELHCLEDEGYPKSQYQWFRNKEEIPLDPKSSPKFFNSTYTLDGEMGTLKFSAVRKEDAGEYYCRAKNEAGISECGPQMMEVYDINIA
modifications: biotin on the lysine of the Bio peptide (bait form, enzymatic by BirA)

binding [3]: binds
B3: zebrafish JamB1 ectodomain (domain or fragment, UniProt A0A0R4IGV4 19-226)
chain: VTVSSRNPKVEVHEFSDAELSCEFKTEKDTNPRIEWKRKDKEKDVSFVYYGERFVGPFQDRADIEGATVRLRRVTQADAGEYRCEVSAPSDSISLGETNVTLRVLVPPQTPSCDVPSSALTGSQVELRCRDRHSIPPAVYTWYKDNRALPIRHPNATYTVNEFTGVLIPQSHYNPGTVCQHCMYHPNYHIPNTQLTTTFQTHDLNVAA
modifications: biotin on the lysine of the Bio peptide (bait form, enzymatic by BirA)

binding [4]: binds
B4: rat Cd200R ectodomain (domain or fragment, UniProt Q9ES58 24-239)
chain: SCPDKNQTMQNNSSTMTEVNTTVFVQMGKKALLCCPSISLTKVILITWTITLRGQPSCIISYKADTRETHESNCSDRSITWASTPDLAPDLQISAVALQHEGRYSCDIAVPDGNFQNIYDLQVLVPPEVTHFPGENRTAVCEAIAGKPAAQISWTPDGDCVAKNESHSNGTVTVRSTCHWEQSHVSVVFCVVSHLTTGNQSLSIELGRGGDQLLGS
modifications: biotin on the lysine of the Bio peptide (bait form, enzymatic by BirA)
